In US10071971B2 (priority 2012, dated 2018):
Some results were stated once for a whole list of compounds, not compound by compound.

tested on: Pyricularia oryzae; assay: not given; type: cell-based; conditions: 31 ppm; MTP measured at 405 nm 7 days after inoculation; relative to active compound-free control (100%)

Compound | growth (relative growth in % of the pathogen)
CC(O)(Cn1cncn1)c1ccc(-c2ccc(Cl)cc2)cc1Cl (racemic) [Compound I-1] | ≤ 15%
CC#CC(Cn1cncn1)(OC)c1ccc(-c2ccc(Cl)cc2)cc1Cl (racemic) [Compound I-3] | ≤ 15%
CC#CC(O)(Cn1cncn1)c1ccc(-c2ccc(C(F)(F)F)cc2)cc1Cl (racemic) [Compound I-11] | ≤ 15%
CCC(O)(Cn1cncn1)c1ccc(-c2cccc(Cl)c2)cc1Cl (racemic) [Compound I-14] | ≤ 15%
CCC(O)(Cn1cncn1)c1ccc(-c2ccc(C(F)(F)F)cc2)cc1Cl (racemic) [Compound I-15] | ≤ 15%
CCC(O)(Cn1cncn1)c1ccc(-c2ccccc2C(F)(F)F)cc1Cl (racemic) [Compound I-16] | ≤ 15%
CC#CC(O)(Cn1cncn1)c1ccc(-c2cccc(C(F)(F)F)c2)cc1Cl (racemic) [Compound I-21] | ≤ 15%
CC#CC(O)(Cn1cncn1)c1ccc(-c2cccc(Cl)c2)cc1Cl (racemic) [Compound I-23] | ≤ 15%
CC(O)(Cn1cncn1)c1ccc(-c2ccc(Cl)cc2)cc1F (racemic) [Compound I-27] | ≤ 15%
COC(C)(Cn1cncn1)c1ccc(-c2ccc(Cl)cc2)cc1F (racemic) [Compound I-28] | ≤ 15%
OC(Cn1cncn1)(c1ccc(-c2ccc(Cl)cc2)cc1F)C1CC1 (racemic) [Compound I-32] | ≤ 15%
COC(Cn1cncn1)(c1ccc(-c2ccc(Cl)cc2)cc1F)C1CC1 (racemic) [Compound I-33] | ≤ 15%
OC(Cn1cncn1)(c1ccc(-c2ccc(F)cc2)cc1F)C1CC1 (racemic) [Compound I-34] | ≤ 15%
CC#CC(O)(Cn1cncn1)c1ccc(-c2ccc(Cl)cc2)cc1F (racemic) [Compound I-40] | ≤ 15%
CC#CC(Cn1cncn1)(OC)c1ccc(-c2ccc(Cl)cc2)cc1F (racemic) [Compound I-41] | ≤ 15%
COC(Cn1cncn1)(c1ccc(-c2ccc(Cl)cc2)cc1F)C(C)(C)C (racemic) [Compound I-45] | ≤ 15%
CC(C)(C)C(O)(Cn1cncn1)c1ccc(-c2ccc(F)cc2)cc1F (racemic) [Compound I-46] | ≤ 15%
OC(Cn1cncn1)(c1ccc(-c2ccc(C(F)(F)F)cc2)cc1Cl)C(F)(F)F (racemic) [Compound I-51] | ≤ 15%
OC(Cn1cncn1)(c1ccc(-c2cccc(Cl)c2)cc1Cl)C(F)(F)F (racemic) [Compound I-52] | ≤ 15%
OC(Cn1cncn1)(c1ccc(-c2ccc(Cl)cc2Cl)cc1Cl)C1CC1 (racemic) [Compound I-58] | ≤ 15%
OC(Cn1cncn1)(c1ccc(-c2ccc(Cl)cc2)cc1F)C(F)(F)F (racemic) [Compound I-60] | ≤ 15%

Compound | growth (relative growth in % of the pathogen)
OC(Cn1cncn1)(c1ccc(-c2cccc(Cl)c2)cc1Cl)C1CC1 (racemic) [Compound I-74] | ≤ 15%
CC(O)(Cn1cncn1)c1ccc(-c2ccc(F)cc2)cc1Cl (racemic) [Compound I-79] | ≤ 15%
CC(O)(Cn1cncn1)c1ccc(-c2cccc(Cl)c2)cc1Cl (racemic) [Compound I-85] | ≤ 15%
COC(C)(Cn1cncn1)c1ccc(-c2ccc(Cl)cc2)cc1Cl (stereo not drawn) [Compound I-88] | ≤ 15%
CC(O)(Cn1cncn1)c1ccc(-c2ccc(F)cc2)cc1C(F)(F)F (stereo not drawn) [Compound I-91] | ≤ 15%
CC(O)(Cn1cncn1)c1ccc(-c2cccc(C(F)(F)F)c2)cc1C(F)(F)F (stereo not drawn) [Compound I-95] | ≤ 15%
CC(O)(Cn1cncn1)c1ccc(-c2cccc(F)c2)cc1C(F)(F)F (stereo not drawn) [Compound I-99] | ≤ 15%
CC(C)(C)C(O)(Cn1cncn1)c1ccc(-c2ccc(F)cc2)cc1Cl (stereo not drawn) [Compound I-104] | ≤ 15%
COC(C)(Cn1cncn1)c1ccc(-c2ccc(C(F)(F)F)cc2)cc1Cl (stereo not drawn) [Compound I-105] | ≤ 15%
OC(Cn1cncn1)(c1ccc(-c2ccc(Cl)cc2)cc1)C1CC1 (stereo not drawn) [Compound I-106] | ≤ 15%
OC(Cn1cncn1)(c1ccc(-c2ccc(C(F)(F)F)cc2)cc1)C1CC1 (stereo not drawn) [Compound I-107] | ≤ 15%
OC(Cn1cncn1)(c1ccc(-c2ccc(F)cc2)cc1)C1CC1 (stereo not drawn) [Compound I-108] | ≤ 15%
OC(Cn1cncn1)(c1ccc(-c2ccc(F)cc2F)cc1)C1CC1 (stereo not drawn) [Compound I-109] | ≤ 15%
OC(Cn1cncn1)(c1ccc(-c2ccc(Cl)cc2Cl)cc1)C1CC1 (stereo not drawn) [Compound I-110] | ≤ 15%
OC(Cn1cncn1)(c1ccc(-c2cc(F)c(F)c(F)c2)cc1)C1CC1 (stereo not drawn) [Compound I-111] | ≤ 15%
OC(Cn1cncn1)(c1ccc(-c2cccc(C(F)(F)F)c2)cc1)C1CC1 (stereo not drawn) [Compound I-112] | ≤ 15%
OC(Cn1cncn1)(c1ccc(-c2ccccc2C(F)(F)F)cc1)C1CC1 (stereo not drawn) [Compound I-113] | ≤ 15%
OC(Cn1cncn1)(c1ccc(-c2cccc(Cl)c2)cc1)C1CC1 (stereo not drawn) [Compound I-114] | ≤ 15%
OC(Cn1cncn1)(c1ccc(-c2ccccc2Cl)cc1)C1CC1 (stereo not drawn) [Compound I-115] | ≤ 15%
OC(Cn1cncn1)(c1ccc(-c2cccc(F)c2)cc1)C1CC1 (stereo not drawn) [Compound I-116] | ≤ 15%
OC(Cn1cncn1)(c1ccc(-c2ccccc2F)cc1)C1CC1 (stereo not drawn) [Compound I-117] | ≤ 15%

Compound | growth (relative growth in % of the pathogen)
CC(C)C(O)(Cn1cncn1)c1ccc(-c2ccc(Cl)cc2)cc1C(F)(F)F (stereo not drawn) [Compound I-118] | ≤ 15%
CC(C)C(O)(Cn1cncn1)c1ccc(-c2ccc(C(F)(F)F)cc2)cc1C(F)(F)F (stereo not drawn) [Compound I-119] | ≤ 15%
CC(C)C(O)(Cn1cncn1)c1ccc(-c2ccc(F)cc2)cc1C(F)(F)F (stereo not drawn) [Compound I-120] | ≤ 15%
CC(C)C(O)(Cn1cncn1)c1ccc(-c2ccc(F)cc2F)cc1C(F)(F)F (stereo not drawn) [Compound I-121] | ≤ 15%
CC(C)C(O)(Cn1cncn1)c1ccc(-c2ccc(Cl)cc2Cl)cc1C(F)(F)F (stereo not drawn) [Compound I-122] | ≤ 15%
CC(C)C(O)(Cn1cncn1)c1ccc(-c2cc(F)c(F)c(F)c2)cc1C(F)(F)F (stereo not drawn) [Compound I-123] | ≤ 15%
CC(C)C(O)(Cn1cncn1)c1ccc(-c2cccc(C(F)(F)F)c2)cc1C(F)(F)F (stereo not drawn) [Compound I-124] | ≤ 15%
CC(C)C(O)(Cn1cncn1)c1ccc(-c2ccccc2C(F)(F)F)cc1C(F)(F)F (stereo not drawn) [Compound I-125] | ≤ 15%
CC(C)C(O)(Cn1cncn1)c1ccc(-c2cccc(Cl)c2)cc1C(F)(F)F (stereo not drawn) [Compound I-126] | ≤ 15%
CC(C)C(O)(Cn1cncn1)c1ccc(-c2ccccc2Cl)cc1C(F)(F)F (stereo not drawn) [Compound I-127] | ≤ 15%
CC(C)C(O)(Cn1cncn1)c1ccc(-c2cccc(F)c2)cc1C(F)(F)F (stereo not drawn) [Compound I-128] | ≤ 15%
CC(C)C(O)(Cn1cncn1)c1ccc(-c2ccccc2F)cc1C(F)(F)F (stereo not drawn) [Compound I-129] | ≤ 15%
CC#CC(O)(Cn1cncn1)c1ccc(-c2ccc(Cl)cc2)cc1 (stereo not drawn) [Compound I-221] | ≤ 15%
CC#CC(O)(Cn1cncn1)c1ccc(-c2ccc(Cl)cc2Cl)cc1 (stereo not drawn) [Compound I-225] | ≤ 15%
CC#CC(O)(Cn1cncn1)c1ccc(-c2cc(F)c(F)c(F)c2)cc1 (stereo not drawn) [Compound I-226] | ≤ 15%
CC#CC(O)(Cn1cncn1)c1ccc(-c2cccc(C(F)(F)F)c2)cc1 (stereo not drawn) [Compound I-227] | ≤ 15%
CC#CC(O)(Cn1cncn1)c1ccc(-c2ccccc2C(F)(F)F)cc1 (stereo not drawn) [Compound I-228] | ≤ 15%
CC#CC(O)(Cn1cncn1)c1ccc(-c2cccc(Cl)c2)cc1 (stereo not drawn) [Compound I-229] | ≤ 15%
CC#CC(O)(Cn1cncn1)c1ccc(-c2ccccc2Cl)cc1 (stereo not drawn) [Compound I-230] | ≤ 15%
CC#CC(O)(Cn1cncn1)c1ccc(-c2ccccc2F)cc1 (stereo not drawn) [Compound I-232] | ≤ 15%

tested on: Botrytis cinerea; assay: Activity against the grey mold Botrytis cinerea in the microtiterplate test (Botrci); type: cell-based; conditions: 31 ppm; MTP measured at 405 nm 7 days after inoculation; relative to active compound-free control (100%)

Compound | growth (relative growth in % of the pathogen)
CCC(O)(Cn1cncn1)c1ccc(-c2ccccc2C(F)(F)F)cc1Cl (racemic) [Compound I-16] | ≤ 17%
COC(Cn1cncn1)(c1ccc(-c2ccc(Cl)cc2)cc1F)C(C)(C)C (racemic) [Compound I-45] | ≤ 17%
OC(Cn1cncn1)(c1ccc(-c2cc(F)cc(F)c2)cc1Cl)C(F)(F)F (racemic) [Compound I-54] | ≤ 17%
OC(Cn1cncn1)(c1ccc(-c2ccc(Cl)cc2Cl)cc1Cl)C1CC1 (racemic) [Compound I-58] | ≤ 17%
